For one substance, binding results are on record in PMC8293630.

Chains of the proteins cited; added tags and fusions are not shown. Residues count along the entry.
UniProt P07766, residues 23-207: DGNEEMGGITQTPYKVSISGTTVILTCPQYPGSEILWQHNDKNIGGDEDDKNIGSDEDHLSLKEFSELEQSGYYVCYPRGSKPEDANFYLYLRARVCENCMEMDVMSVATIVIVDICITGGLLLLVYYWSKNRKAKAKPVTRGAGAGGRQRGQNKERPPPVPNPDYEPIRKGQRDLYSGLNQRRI

This assay deals with CD3ε, endogenous in J76 Jurkat cells (human (endogenous in Jurkat J76)) (UniProt P07766). The experiment in a line: co-IP; J76 CD8+ 1G4 cells with mono-biotinylated UCHT1-Fab' or biotinylated UCHT1 mAb (anti-CD3ε) for 5 min at 37°C or on ice, ± A770041; lysis in 0.5% DDM, 150 mM NaCl, 20 mM Tris pH 8.0; streptavidin Sepharose 1 h at 4°C; immunoblot of ε, β (HA), ζ; ratios to ε. A general note: In western blotting, separated proteins are transferred to a membrane and probed.

No constants are given. Whether binding was seen depends on the method and setting. In cells and extracts the contact can be indirect. Some binding calls cover weakened binding; strength is not graded here.

On to “CD3ζ (ζζ), endogenous in J76 Jurkat cells (from UniProt P20963-1 22-164)”, for which the binding result is recorded as “binds”.
